Results: paper PMC9661769
No constants are given. Whether binding was seen depends on the method and setting. Binding seen in cells or lysates may run through a third protein. Some results given as binding are weak or reduced against the parent protein; the word gives no strength. For part of these data: Where a sequence is shown, tags or fusion partners need not be part of it.

Sequences of proteins named here, by UniProt entry; tags and fusion partners are left off.
UniProt P55064: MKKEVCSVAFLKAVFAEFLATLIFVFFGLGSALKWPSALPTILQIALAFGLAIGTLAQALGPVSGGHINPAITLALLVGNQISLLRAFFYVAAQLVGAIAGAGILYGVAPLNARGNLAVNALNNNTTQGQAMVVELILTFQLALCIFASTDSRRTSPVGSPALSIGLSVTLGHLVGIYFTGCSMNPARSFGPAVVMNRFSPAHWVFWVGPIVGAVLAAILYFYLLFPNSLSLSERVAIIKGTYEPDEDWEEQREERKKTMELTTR
UniProt P19474: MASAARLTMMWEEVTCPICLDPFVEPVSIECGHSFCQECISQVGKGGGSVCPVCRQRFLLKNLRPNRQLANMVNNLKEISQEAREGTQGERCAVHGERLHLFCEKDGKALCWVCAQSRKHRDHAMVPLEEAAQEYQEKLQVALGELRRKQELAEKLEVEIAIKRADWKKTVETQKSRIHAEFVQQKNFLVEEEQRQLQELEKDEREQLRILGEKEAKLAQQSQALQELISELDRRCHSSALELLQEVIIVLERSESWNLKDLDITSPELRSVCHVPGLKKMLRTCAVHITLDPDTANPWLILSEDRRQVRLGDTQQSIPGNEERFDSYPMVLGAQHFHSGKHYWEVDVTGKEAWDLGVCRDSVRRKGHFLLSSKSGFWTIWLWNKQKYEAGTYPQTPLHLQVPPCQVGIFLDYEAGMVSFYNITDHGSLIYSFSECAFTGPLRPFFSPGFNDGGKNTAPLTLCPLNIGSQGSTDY

Legend:
[1] = target: T1, ULK1-HA (UniProt O75385); assay: co-IP; AQP5-overexpressing or AQP5-knockdown AGS cells co-transfected with ULK1-HA and TRIM21-Myc; lysates precipitated with anti-HA agarose and immunoblotted; also 293T cells with AQP5 overexpressed to different degrees (Figure S11f)
T1 sequence: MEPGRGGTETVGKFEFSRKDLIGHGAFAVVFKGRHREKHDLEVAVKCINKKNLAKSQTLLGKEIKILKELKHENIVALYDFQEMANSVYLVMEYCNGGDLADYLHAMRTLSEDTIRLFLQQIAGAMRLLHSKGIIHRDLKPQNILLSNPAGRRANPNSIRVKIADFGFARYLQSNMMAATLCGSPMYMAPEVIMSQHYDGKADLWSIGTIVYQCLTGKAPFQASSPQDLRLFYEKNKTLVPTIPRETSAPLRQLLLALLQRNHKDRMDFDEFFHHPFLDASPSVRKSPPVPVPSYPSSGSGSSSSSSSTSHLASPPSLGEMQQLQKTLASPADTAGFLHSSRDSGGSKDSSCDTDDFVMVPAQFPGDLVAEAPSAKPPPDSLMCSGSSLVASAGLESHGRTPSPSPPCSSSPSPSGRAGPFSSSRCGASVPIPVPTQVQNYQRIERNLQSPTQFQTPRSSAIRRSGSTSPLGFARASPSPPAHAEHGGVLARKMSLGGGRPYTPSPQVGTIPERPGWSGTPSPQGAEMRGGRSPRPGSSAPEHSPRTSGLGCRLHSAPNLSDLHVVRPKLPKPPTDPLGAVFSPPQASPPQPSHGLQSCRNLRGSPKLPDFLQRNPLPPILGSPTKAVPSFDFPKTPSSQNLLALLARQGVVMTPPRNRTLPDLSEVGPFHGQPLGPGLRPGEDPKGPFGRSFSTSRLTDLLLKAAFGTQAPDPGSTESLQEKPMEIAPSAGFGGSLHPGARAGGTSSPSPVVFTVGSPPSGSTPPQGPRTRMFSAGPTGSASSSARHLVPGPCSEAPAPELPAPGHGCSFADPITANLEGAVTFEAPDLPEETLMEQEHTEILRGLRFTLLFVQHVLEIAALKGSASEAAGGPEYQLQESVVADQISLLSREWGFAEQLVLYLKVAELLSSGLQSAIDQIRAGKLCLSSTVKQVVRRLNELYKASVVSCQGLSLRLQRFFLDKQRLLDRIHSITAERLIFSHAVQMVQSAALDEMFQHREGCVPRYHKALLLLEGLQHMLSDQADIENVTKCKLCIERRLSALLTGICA

[2] = target: AQP5 (UniProt P55064); assay: co-IP; immunoprecipitation analyses of AQP5, TRIM21 and ULK1 (Figure S11a-c); cells, baits and antibodies not shown
[3] = target: T2, ULK1 (UniProt O75385); assay: as above
T2 sequence: T1 sequence

Row | binding [1] | binding [2] | binding [3] | Substance
1 | binds |  |  | TRIM21-Myc (from UniProt P19474 1-475)
2 |  | binds | binds | TRIM21 (from UniProt P19474 1-475)
